No constants are given. Whether binding was seen depends on the method and setting. Sequences can lack the tags named with a protein.

Chains of the proteins cited; added tags and fusions are not shown. Lines headed by an entry give the natural chain unless they say otherwise; changes in a name come on top.
UniProt P04688: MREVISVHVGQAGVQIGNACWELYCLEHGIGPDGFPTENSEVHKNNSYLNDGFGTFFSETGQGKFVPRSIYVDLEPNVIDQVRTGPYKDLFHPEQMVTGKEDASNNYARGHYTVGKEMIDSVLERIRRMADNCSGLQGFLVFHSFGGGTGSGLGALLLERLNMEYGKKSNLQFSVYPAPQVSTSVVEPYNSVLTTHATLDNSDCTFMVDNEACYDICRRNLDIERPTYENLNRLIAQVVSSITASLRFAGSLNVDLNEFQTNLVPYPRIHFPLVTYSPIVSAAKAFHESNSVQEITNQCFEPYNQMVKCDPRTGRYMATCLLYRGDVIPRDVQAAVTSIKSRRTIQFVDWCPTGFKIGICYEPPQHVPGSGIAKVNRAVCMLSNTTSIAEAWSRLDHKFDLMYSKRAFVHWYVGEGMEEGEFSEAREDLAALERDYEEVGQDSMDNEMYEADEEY

The test deals with T1, S. pombe single isoform (α1β) tubulin (S. pombe, UniProt P04688 1-455; P05219 1-448).
T1 construct: alpha-1 tubulin (α1) of S. pombe, from strain mmsp174 (atb2 replaced by nda2+); beta tubulin (β) of S. pombe, from strain mmsp174; Stands both as the free GTP-tubulin heterodimer and as the growing plus end of the microtubule polymerised from it; which of the two is meant is told in the assay's format and the quantity; also called GTP-tubulin; T (tubulin dimer); source: purified from S. pombe …
In words: glycerol gradient centrifugation; 5-40% glycerol gradient of purified Alp14, Alp7 and tubulin, alone or mixed; tubulin as GTP-tubulin where stated; fractions on SDS-PAGE with Coomassie staining; both purified.

B1: Alp7, full length, with an N-terminal avi-tag (natural protein, S. pombe, UniProt Q9URY2 1-474, looked up)
chain: MSDIVSSSTDYSRRSPSSSSIGTNETDHTGFHEKRQGASSESLIPPAQRSSEESMPAPKLFPKLTSKPNPQLNLKDTLNKRVSDRLQALELNKSFDFSGTPRPMHPISHPLSQHKTPEFKHRKRNVESILTPKNPSLFSSSNAASQRGSLNTAPSNFAYSHSSSLQTSASSRPPVLSNGSFPRQTNTAPLNPPVHLKDNIRNSATPSTSQADIPTQYPINSTQKQQAKYEAEIEGYKAKLAGTYHEISVLQNTIVNVSGQLIAVNDQLQQLRSGKASTSPSTKDTNMRLVEGHNEETLALQRGKYTQEEVDKLIQERMEKVAEDLHAQYSAKHTQKINAFKANYARKYEATIQELQNQIGTAPNAPKISNSNWEEERRALKADNQTLQKQLEKAIQERQDMSDFLNNFKADMAKSDKLLMQQQSQQTGDLETLRLQLQALQEELRVEREERQQLIQMSEDLVIAMDQLNLEQKS
modifications: biotin on the AviTag (BirA ligase co-expressed to ensure biotinylation)
notes: Alp7 (Mia1p), TACC-family protein of S. pombe, full length; gene PCR-amplified from wild-type genomic S. pombe DNA; also called Alp7/TACC; Mia1p; source: Sf9 insect cells (baculovirus, BirA ligase co-expressed), purified on monomeric avidin agarose
As for B1, the binding result is reported as “no binding”.

(Values after publication PMC4749977, “Alp7/TACC-Alp14/TOG generates long-lived, fast-growing MTs by an unconventional mechanism” (Scientific Reports, 2016).)
